From the supplement of paper PMC12067093, “Discovery and optimisation of a covalent ligand for TRIM25 and its application to targeted protein ubiquitination” (Chemical Science, 2025)
The list shows a part of the results.

Chains of the proteins cited; added tags and fusions are not shown. Lines headed by an entry give the natural chain unless they say otherwise; changes in a name come on top.
UniProt P00738: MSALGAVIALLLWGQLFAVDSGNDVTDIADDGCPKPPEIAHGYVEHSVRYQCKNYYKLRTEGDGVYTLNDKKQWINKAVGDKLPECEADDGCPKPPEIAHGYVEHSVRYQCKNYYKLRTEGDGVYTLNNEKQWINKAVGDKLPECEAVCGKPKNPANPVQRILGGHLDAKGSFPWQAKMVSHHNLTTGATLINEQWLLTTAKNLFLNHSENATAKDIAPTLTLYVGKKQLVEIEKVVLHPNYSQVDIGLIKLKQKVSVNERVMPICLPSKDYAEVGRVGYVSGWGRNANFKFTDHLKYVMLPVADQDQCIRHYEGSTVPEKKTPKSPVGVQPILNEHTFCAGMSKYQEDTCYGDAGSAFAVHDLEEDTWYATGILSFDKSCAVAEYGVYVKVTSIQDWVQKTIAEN
UniProt Q1KMD3: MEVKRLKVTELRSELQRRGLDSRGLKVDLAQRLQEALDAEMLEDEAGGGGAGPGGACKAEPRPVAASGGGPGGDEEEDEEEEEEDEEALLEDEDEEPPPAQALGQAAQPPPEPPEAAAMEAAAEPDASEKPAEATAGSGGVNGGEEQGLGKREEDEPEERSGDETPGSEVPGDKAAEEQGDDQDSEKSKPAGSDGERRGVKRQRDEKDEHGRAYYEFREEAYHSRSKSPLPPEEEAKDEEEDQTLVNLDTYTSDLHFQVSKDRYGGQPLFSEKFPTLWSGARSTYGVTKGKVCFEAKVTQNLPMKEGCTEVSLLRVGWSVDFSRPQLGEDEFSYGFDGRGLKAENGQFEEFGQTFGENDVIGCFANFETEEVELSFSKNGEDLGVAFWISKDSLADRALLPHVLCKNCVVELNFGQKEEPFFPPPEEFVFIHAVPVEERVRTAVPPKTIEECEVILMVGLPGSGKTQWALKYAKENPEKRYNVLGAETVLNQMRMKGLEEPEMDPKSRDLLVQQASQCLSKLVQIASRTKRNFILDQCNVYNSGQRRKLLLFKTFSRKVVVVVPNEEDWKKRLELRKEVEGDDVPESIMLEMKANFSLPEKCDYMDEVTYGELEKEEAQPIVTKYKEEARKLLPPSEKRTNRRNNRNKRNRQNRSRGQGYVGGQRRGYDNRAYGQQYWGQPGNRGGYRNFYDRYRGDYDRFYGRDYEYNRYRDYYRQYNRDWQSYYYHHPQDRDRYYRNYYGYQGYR
UniProt Q9NQG7: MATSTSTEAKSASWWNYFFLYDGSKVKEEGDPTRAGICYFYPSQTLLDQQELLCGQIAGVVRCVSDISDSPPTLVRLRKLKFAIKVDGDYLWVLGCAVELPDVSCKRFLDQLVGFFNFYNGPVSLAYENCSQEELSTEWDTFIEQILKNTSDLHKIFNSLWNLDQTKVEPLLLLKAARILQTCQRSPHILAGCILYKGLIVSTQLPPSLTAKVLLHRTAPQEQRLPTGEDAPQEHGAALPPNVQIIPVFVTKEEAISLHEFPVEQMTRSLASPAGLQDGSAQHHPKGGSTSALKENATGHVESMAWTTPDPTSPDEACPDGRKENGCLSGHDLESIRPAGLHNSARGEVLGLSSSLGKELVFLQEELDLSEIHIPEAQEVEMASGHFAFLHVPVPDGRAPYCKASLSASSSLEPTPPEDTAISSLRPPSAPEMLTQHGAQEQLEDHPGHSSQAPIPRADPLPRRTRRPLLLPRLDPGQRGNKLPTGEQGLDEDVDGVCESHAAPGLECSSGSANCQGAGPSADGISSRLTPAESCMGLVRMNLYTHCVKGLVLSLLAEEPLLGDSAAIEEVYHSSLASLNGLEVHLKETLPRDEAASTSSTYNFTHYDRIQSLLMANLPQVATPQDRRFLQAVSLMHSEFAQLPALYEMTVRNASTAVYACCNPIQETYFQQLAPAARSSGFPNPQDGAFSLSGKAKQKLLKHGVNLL
UniProt Q9NZL4: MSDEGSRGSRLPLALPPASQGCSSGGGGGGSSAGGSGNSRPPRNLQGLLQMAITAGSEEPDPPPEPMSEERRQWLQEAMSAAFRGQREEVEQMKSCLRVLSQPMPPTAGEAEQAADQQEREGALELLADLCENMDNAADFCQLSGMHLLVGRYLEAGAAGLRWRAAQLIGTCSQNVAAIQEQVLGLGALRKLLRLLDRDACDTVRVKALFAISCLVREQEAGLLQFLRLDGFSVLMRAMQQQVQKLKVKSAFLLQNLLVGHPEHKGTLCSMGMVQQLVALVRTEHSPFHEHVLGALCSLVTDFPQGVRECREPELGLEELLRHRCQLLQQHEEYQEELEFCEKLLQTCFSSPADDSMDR
UniProt P51991: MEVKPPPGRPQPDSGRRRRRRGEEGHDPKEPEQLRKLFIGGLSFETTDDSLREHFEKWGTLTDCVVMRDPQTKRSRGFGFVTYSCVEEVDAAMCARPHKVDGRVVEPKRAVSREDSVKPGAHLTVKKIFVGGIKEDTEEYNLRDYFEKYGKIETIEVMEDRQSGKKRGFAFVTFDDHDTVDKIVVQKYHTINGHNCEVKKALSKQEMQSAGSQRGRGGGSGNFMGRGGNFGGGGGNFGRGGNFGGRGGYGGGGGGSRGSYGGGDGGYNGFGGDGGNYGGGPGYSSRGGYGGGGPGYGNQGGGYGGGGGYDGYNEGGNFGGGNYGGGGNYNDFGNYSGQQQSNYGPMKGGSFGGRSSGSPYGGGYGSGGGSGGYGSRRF
UniProt P51659: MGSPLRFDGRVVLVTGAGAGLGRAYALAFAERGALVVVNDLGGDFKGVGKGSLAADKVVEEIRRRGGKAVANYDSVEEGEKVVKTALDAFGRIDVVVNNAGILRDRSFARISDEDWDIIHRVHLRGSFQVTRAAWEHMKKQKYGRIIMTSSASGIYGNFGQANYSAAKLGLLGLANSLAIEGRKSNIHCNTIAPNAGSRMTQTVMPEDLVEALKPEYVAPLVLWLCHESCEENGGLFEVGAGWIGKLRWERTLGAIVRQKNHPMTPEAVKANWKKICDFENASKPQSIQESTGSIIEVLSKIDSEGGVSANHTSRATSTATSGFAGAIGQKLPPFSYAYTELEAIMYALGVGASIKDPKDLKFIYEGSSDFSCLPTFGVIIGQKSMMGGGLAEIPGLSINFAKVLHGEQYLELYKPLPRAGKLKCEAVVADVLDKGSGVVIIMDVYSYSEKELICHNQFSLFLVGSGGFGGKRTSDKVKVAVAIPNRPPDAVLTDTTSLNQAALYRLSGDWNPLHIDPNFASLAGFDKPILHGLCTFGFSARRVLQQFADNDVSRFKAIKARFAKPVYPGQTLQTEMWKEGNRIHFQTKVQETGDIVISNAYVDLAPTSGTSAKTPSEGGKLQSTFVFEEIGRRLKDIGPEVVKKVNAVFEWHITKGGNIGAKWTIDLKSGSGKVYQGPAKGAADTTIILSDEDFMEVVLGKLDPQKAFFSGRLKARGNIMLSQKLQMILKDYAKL
UniProt P34932: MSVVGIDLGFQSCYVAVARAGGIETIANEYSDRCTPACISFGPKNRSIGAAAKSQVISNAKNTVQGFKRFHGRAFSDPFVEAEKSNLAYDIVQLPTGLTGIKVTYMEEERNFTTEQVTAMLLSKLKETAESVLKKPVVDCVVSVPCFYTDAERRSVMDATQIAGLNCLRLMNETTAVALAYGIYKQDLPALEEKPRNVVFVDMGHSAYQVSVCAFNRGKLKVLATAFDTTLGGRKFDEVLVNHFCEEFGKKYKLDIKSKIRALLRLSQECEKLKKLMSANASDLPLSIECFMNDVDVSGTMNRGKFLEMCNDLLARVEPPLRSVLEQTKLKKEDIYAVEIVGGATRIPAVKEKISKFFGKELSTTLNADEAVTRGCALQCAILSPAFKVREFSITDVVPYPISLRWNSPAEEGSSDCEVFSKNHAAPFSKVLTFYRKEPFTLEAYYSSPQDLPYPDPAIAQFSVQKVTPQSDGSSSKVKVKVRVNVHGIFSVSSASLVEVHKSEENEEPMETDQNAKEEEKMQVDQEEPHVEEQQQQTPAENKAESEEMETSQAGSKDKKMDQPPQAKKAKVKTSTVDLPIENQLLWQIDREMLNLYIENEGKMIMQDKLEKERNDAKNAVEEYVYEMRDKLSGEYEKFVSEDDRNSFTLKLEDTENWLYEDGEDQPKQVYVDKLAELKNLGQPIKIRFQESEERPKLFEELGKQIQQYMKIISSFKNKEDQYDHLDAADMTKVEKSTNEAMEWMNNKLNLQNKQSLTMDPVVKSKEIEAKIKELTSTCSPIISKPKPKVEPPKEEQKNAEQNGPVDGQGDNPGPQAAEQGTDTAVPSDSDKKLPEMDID
UniProt Q92598: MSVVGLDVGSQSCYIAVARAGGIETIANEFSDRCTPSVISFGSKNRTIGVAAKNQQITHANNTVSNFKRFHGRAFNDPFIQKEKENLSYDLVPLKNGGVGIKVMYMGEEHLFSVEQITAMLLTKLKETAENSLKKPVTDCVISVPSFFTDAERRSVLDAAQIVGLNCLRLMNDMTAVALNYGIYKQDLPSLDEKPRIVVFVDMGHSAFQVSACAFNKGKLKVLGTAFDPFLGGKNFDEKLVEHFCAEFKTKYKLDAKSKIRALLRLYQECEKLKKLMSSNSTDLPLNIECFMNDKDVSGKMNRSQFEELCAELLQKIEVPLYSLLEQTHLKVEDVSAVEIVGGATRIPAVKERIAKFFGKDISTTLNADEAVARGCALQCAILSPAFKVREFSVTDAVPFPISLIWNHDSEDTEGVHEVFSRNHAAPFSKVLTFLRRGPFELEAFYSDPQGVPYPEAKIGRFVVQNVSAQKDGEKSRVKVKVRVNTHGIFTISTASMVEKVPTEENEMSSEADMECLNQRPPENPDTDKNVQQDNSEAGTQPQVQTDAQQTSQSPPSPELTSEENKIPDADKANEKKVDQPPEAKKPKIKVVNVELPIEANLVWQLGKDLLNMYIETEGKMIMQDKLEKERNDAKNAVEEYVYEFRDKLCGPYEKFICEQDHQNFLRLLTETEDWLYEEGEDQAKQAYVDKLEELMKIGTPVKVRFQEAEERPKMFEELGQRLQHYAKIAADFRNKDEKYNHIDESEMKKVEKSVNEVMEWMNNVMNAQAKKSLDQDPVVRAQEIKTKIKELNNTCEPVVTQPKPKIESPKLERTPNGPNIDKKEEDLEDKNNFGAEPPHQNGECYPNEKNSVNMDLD
UniProt P35914: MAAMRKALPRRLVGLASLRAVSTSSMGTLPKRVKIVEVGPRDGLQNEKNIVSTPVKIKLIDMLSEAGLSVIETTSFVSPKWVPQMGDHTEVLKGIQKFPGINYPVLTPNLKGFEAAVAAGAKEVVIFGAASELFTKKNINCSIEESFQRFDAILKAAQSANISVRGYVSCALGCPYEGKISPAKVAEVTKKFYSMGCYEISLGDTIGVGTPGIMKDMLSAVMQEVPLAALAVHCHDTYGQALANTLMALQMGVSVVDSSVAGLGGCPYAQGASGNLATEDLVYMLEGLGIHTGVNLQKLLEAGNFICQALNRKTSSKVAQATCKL
UniProt P09651: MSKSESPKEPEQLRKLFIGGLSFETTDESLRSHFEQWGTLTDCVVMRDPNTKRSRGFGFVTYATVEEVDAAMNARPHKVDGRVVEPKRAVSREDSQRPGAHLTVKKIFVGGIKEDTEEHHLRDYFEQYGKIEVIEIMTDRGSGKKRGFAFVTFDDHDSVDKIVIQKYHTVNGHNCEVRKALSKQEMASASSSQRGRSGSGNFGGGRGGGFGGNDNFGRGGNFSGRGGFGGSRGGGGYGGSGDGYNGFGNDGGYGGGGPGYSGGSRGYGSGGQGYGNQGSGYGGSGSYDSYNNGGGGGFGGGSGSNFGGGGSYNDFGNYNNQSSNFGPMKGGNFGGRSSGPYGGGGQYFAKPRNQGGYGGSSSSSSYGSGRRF
UniProt Q3SXM5: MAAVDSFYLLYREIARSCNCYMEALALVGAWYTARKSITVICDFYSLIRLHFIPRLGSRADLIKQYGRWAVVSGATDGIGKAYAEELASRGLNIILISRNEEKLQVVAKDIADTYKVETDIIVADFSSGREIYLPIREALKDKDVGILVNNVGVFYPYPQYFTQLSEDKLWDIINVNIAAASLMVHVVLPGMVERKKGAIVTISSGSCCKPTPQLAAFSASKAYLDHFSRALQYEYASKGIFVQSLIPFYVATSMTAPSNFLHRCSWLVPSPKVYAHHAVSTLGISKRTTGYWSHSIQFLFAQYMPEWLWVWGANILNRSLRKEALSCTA
UniProt Q00613: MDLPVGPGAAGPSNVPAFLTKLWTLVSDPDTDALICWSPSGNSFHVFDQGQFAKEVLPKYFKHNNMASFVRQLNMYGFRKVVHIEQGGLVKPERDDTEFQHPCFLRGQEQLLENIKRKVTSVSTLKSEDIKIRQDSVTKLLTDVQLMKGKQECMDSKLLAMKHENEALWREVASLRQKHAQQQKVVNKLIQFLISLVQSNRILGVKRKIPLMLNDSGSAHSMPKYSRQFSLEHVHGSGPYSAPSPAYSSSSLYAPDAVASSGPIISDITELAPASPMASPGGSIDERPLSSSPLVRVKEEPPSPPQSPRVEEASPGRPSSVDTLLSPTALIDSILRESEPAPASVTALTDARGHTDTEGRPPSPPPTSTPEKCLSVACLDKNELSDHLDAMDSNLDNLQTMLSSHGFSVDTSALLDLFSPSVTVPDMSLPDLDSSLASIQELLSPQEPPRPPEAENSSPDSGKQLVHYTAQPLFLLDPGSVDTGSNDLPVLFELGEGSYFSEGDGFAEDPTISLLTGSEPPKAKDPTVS

Compound: CC1Cc2ccccc2N1C(=O)C1CCCN(C1)C(=O)CCl (mixture of isomers) [TRIM25 ligand 11 (diastereomer mixture)]
Assay: probe-labelled cysteine peptide fold change vs DMSO (competition) (log2 fold change); higher = less target engagement (more negative = stronger competition)
Settings: THP-1, incubation time: 4 h
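Further: competitive chemoproteomic profiling in live THP-1 cells with an iodoacetamide desthiobiotin (IA-DTB) probe, comparing probe-labelled peptide intensities in compound-treated cells against DMSO-treated controls.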

HP_P00738_340_SPVGVQPILNEHTFCAGMSK (UniProt P00738)
probe-labelled cysteine peptide fold change (10 µM): -0.0896
probe-labelled cysteine peptide fold change (50 µM): -0.24

HNRNPUL2_Q1KMD3_405_ALLPHVLCK (UniProt Q1KMD3)
probe-labelled cysteine peptide fold change (10 µM): -0.0475
probe-labelled cysteine peptide fold change (50 µM): 0.00219

HPS4_Q9NQG7_183_ILQTCQR (UniProt Q9NQG7)
probe-labelled cysteine peptide fold change (10 µM): -0.0554
probe-labelled cysteine peptide fold change (50 µM): 0.296

HSPBP1_Q9NZL4_341_CQLLQQHEEYQEELEFCEK (UniProt Q9NZL4)
probe-labelled cysteine peptide fold change (10 µM): 0.0296
probe-labelled cysteine peptide fold change (50 µM): 0.188

HNRNPA3_P51991_85_GFGFVTYSCVEEVDAAMCARPHK (UniProt P51991)
probe-labelled cysteine peptide fold change (10 µM): -0.229
probe-labelled cysteine peptide fold change (50 µM): -0.173

HNRNPD_Q14103_226_GFCFITFK (UniProt Q14103)
probe-labelled cysteine peptide fold change (10 µM): -0.0603
probe-labelled cysteine peptide fold change (50 µM): -0.0257

HPS3_Q969F9_647_QVPHILCSPSMK (UniProt Q969F9)
probe-labelled cysteine peptide fold change (10 µM): 0.000983
probe-labelled cysteine peptide fold change (50 µM): -0.0869

HSD17B4_P51659_277_KICDFENASKPQSIQESTGSIIEVLSK (UniProt P51659)
probe-labelled cysteine peptide fold change (10 µM): -0.118
probe-labelled cysteine peptide fold change (50 µM): -0.218

HSP90AA1_P07900_598_LVTSPCCIVTSTYGWTANMER (UniProt P07900)
probe-labelled cysteine peptide fold change (10 µM): -0.043
probe-labelled cysteine peptide fold change (50 µM): 0.15

HNRNPL_P14866_521_IQHPSNVLHFFNAPLEVTEENFFEICDELGVK (UniProt P14866)
probe-labelled cysteine peptide fold change (10 µM): 0.0969
probe-labelled cysteine peptide fold change (50 µM): -0.196

HSPBP1_Q9NZL4_269_GTLCSMGMVQQLVALVR (UniProt Q9NZL4)
probe-labelled cysteine peptide fold change (10 µM): 0.0217
probe-labelled cysteine peptide fold change (50 µM): 0.156

HNRNPA3_P51991_64_WGTLTDCVVMRDPQTKR (UniProt P51991)
probe-labelled cysteine peptide fold change (10 µM): -0.717
probe-labelled cysteine peptide fold change (50 µM): -0.524

HSDL2_Q6YN16_218_TAIHTAAMDMLGGPGIESQCR (UniProt Q6YN16)
probe-labelled cysteine peptide fold change (10 µM): -0.0961
probe-labelled cysteine peptide fold change (50 µM): -0.23

HNRNPA0_Q13151_36_GHFEAFGTLTDCVVVVNPQTK (UniProt Q13151)
probe-labelled cysteine peptide fold change (10 µM): -0.0152
probe-labelled cysteine peptide fold change (50 µM): 0.0374

HSD17B4_P51659_425_LKCEAVVADVLDK (UniProt P51659)
probe-labelled cysteine peptide fold change (10 µM): 0.0809
probe-labelled cysteine peptide fold change (50 µM): 0.215

HNRNPA2B1_P22626_50_LTDCVVMRDPASKR (UniProt P22626)
probe-labelled cysteine peptide fold change (10 µM): -0.332
probe-labelled cysteine peptide fold change (50 µM): -0.307

HSPA4_P34932_290_KLMSANASDLPLSIECFMNDVDVSGTMNR (UniProt P34932)
probe-labelled cysteine peptide fold change (10 µM): 0.132
probe-labelled cysteine peptide fold change (50 µM): -0.31

HSPA4_P34932_779_ELTSTCSPIISKPK (UniProt P34932)
probe-labelled cysteine peptide fold change (10 µM): -0.26
probe-labelled cysteine peptide fold change (50 µM): -0.334

HSPH1_Q92598_796_ELNNTCEPVVTQPK (UniProt Q92598)
probe-labelled cysteine peptide fold change (10 µM): -0.0538
probe-labelled cysteine peptide fold change (50 µM): 0.0693

HMGCL_P35914_323_VAQATCK (UniProt P35914)
probe-labelled cysteine peptide fold change (10 µM): 0.21
probe-labelled cysteine peptide fold change (50 µM): -0.0787

HNRNPUL2_Q1KMD3_308_EGCTEVSLLR (UniProt Q1KMD3)
probe-labelled cysteine peptide fold change (10 µM): 0.0447
probe-labelled cysteine peptide fold change (50 µM): 0.0554

HSPA4_P34932_213_NVVFVDMGHSAYQVSVCAFNR (UniProt P34932)
probe-labelled cysteine peptide fold change (10 µM): 0.1
probe-labelled cysteine peptide fold change (50 µM): 0.0909

HNMT_P50135_31_FLNHSTEHQCMQEFMDK (UniProt P50135)
probe-labelled cysteine peptide fold change (10 µM): 0.0155
probe-labelled cysteine peptide fold change (50 µM): -0.145

HNRNPA1_P09651_43_SHFEQWGTLTDCVVMR (UniProt P09651)
probe-labelled cysteine peptide fold change (10 µM): 0.0151
probe-labelled cysteine peptide fold change (50 µM): -0.061

HSDL1_Q3SXM5_42_SITVICDFYSLIR (UniProt Q3SXM5)
probe-labelled cysteine peptide fold change (10 µM): -0.156
probe-labelled cysteine peptide fold change (50 µM): 0.00598

HMGB3_O15347_23_MSAYAFFVQTCR (UniProt O15347)
probe-labelled cysteine peptide fold change (10 µM): -0.208
probe-labelled cysteine peptide fold change (50 µM): -0.392

HSF1_Q00613_153_GKQECMDSK (UniProt Q00613)
probe-labelled cysteine peptide fold change (10 µM): -0.139
probe-labelled cysteine peptide fold change (50 µM): -0.128

HSPD1_P10809_447_CIPALDSLTPANEDQK (UniProt P10809)
probe-labelled cysteine peptide fold change (10 µM): 0.0164
probe-labelled cysteine peptide fold change (50 µM): -0.115

HPS5_Q9UPZ3_775_STSGHVDHTLQQYSPEILACQFLK (UniProt Q9UPZ3)
probe-labelled cysteine peptide fold change (10 µM): 0.0447
probe-labelled cysteine peptide fold change (50 µM): 0.00925

HNRNPM_P52272_676_DKFNECGHVLYADIK (UniProt P52272)
probe-labelled cysteine peptide fold change (10 µM): -0.633
probe-labelled cysteine peptide fold change (50 µM): -0.474

HSPA4L_O95757_417+421_TSFEDGSGECEVFCK (UniProt O95757)
probe-labelled cysteine peptide fold change (10 µM): 0.0475
probe-labelled cysteine peptide fold change (50 µM): -0.0884

HSPH1_Q92598_650_LCGPYEK (UniProt Q92598)
probe-labelled cysteine peptide fold change (10 µM): -0.0962
probe-labelled cysteine peptide fold change (50 µM): 0.12

HSF1_Q00613_103_DDTEFQHPCFLR (UniProt Q00613)
probe-labelled cysteine peptide fold change (10 µM): 0.0641
probe-labelled cysteine peptide fold change (50 µM): -0.143

HSPA4_P34932_779_ELTSTCSPIISK (UniProt P34932)
probe-labelled cysteine peptide fold change (10 µM): 0.0381
probe-labelled cysteine peptide fold change (50 µM): 0.059

HSPH1_Q92598_140_KPVTDCVISVPSFFTDAERR (UniProt Q92598)
probe-labelled cysteine peptide fold change (10 µM): -0.0644
probe-labelled cysteine peptide fold change (50 µM): -0.0386

HNRNPL_P14866_404_VFNVFCLYGNVEK (UniProt P14866)
probe-labelled cysteine peptide fold change (10 µM): -0.0413
probe-labelled cysteine peptide fold change (50 µM): 0.00937

HNRNPK_P61978_184+185_LFQECCPHSTDR (UniProt P61978)
probe-labelled cysteine peptide fold change (10 µM): -0.022
probe-labelled cysteine peptide fold change (50 µM): -0.0896
